{"source": "PubChem BioAssay AID1224826 (NIAID, 2016)", "test": "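Genes that change LPS-induced Tnf promoter activity in mouse macrophages when knocked down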 (primary screen)", "cells": "RAW264.7 G9 macrophages from mouse bearing reporters for p65 (GFP) and the Tnf promoter (mCherry)", "knock-down reagent": "siRNA pool against mouse genes, 100 nM", "timing": "16 h of LPS stimulation, after 2 days of siRNA transfection", "challenge": "bacterial lipopolysaccharide (Salmonella minnesota R595), 10 ng/ml", "detection": "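Imaged Tnf reporter mCherry in nuclei, minus background, normalised per plate to the median and expressed as robust z-scores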", "scale": "Tnf reporter robust z-score: higher = stronger Tnf promoter reporter signal after LPS", "hit rule": "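Called active when robust z-score is at most -1.3, matching the median of the Tlr4 knock-down control, or over 3; control wells and wells with under 50 cells never active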", "meaning of the calls": "active = Tnf reporter clearly lowered or raised; inactive = no clear change in Tnf reporter", "note": "The deposit covers about 17,000 reagents; shown is a part drawn at random. Over the whole deposit, about 1,110 (6.6%) got an active call. 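Active means lowered or raised reporter signal; replicate intensities are raw and not normalised per plate.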 Unmarked entries are inactive. Not all columns of the deposit are shown."}
{"target": "Zfp607b (GeneID 112415)", "Tnf reporter robust z-score": 0.38, "fewer than 50 cells in well": "enough cells in well"}
{"target": "Gpt2 (GeneID 108682)", "Tnf reporter robust z-score": 0.96, "fewer than 50 cells in well": "enough cells in well"}
{"target": "Oaf (GeneID 102644)", "Tnf reporter robust z-score": -0.49, "fewer than 50 cells in well": "enough cells in well"}
{"target": "Scml4 (GeneID 268297)", "Tnf reporter robust z-score": 0.27, "fewer than 50 cells in well": "enough cells in well"}
{"target": "Vmn1r172 (GeneID 81010)", "Tnf reporter robust z-score": -0.62, "fewer than 50 cells in well": "enough cells in well"}
{"target": "Sh2d4b (GeneID 328381)", "Tnf reporter robust z-score": 0.74, "fewer than 50 cells in well": "enough cells in well"}
{"target": "Ifnl3 (GeneID 338374)", "Tnf reporter robust z-score": -0.38, "fewer than 50 cells in well": "enough cells in well"}
{"target": "Or1j20 (GeneID 258942)", "Tnf reporter robust z-score": 0.96, "fewer than 50 cells in well": "enough cells in well"}
{"target": "Inppl1 (GeneID 16332)", "Tnf reporter robust z-score": "-1.37 (active)", "fewer than 50 cells in well": "enough cells in well"}
{"target": "Cxcr6 (GeneID 80901)", "Tnf reporter robust z-score": -0.24, "fewer than 50 cells in well": "enough cells in well"}
{"target": "Bhlhe22 (GeneID 59058)", "Tnf reporter robust z-score": -0.83, "fewer than 50 cells in well": "enough cells in well"}
{"target": "Jade2 (GeneID 76901)", "Tnf reporter robust z-score": -0.06, "fewer than 50 cells in well": "enough cells in well"}
{"target": "Dusp5 (GeneID 240672)", "Tnf reporter robust z-score": 1.13, "fewer than 50 cells in well": "enough cells in well"}
{"target": "Sipa1l1 (GeneID 217692)", "Tnf reporter robust z-score": -0.12, "fewer than 50 cells in well": "enough cells in well"}

Reprinted from the listing, 2 entries:
{"target": "Scml4 (GeneID 268297)", "Tnf reporter robust z-score": 0.27, "fewer than 50 cells in well": "enough cells in well"}
{"target": "Vmn1r172 (GeneID 81010)", "Tnf reporter robust z-score": -0.62, "fewer than 50 cells in well": "enough cells in well"}

Next records follow:
{"target": "G6pdx (GeneID 14381)", "Tnf reporter robust z-score": 0.95, "fewer than 50 cells in well": "enough cells in well"}
{"target": "Smarca2 (GeneID 67155)", "Tnf reporter robust z-score": 0.74, "fewer than 50 cells in well": "enough cells in well"}
{"target": "Snrk (GeneID 20623)", "Tnf reporter robust z-score": 0.13, "fewer than 50 cells in well": "enough cells in well"}
{"target": "Ttll13 (GeneID 269954)", "Tnf reporter robust z-score": -0.21, "fewer than 50 cells in well": "enough cells in well"}
{"target": "Pmvk (GeneID 68603)", "Tnf reporter robust z-score": -0.68, "fewer than 50 cells in well": "enough cells in well"}
{"target": "Klrg1 (GeneID 50928)", "Tnf reporter robust z-score": -0.24, "fewer than 50 cells in well": "enough cells in well"}
{"target": "Or2l13 (GeneID 259071)", "Tnf reporter robust z-score": 1.93, "fewer than 50 cells in well": "enough cells in well"}
{"target": "Ptn (GeneID 19242)", "Tnf reporter robust z-score": -0.58, "fewer than 50 cells in well": "enough cells in well"}
{"target": "Slc7a3 (GeneID 11989)", "Tnf reporter robust z-score": -0.66, "fewer than 50 cells in well": "enough cells in well"}
{"target": "Bub1 (GeneID 12235)", "Tnf reporter robust z-score": -0.57, "fewer than 50 cells in well": "enough cells in well"}
{"target": "Nkd1 (GeneID 93960)", "Tnf reporter robust z-score": 1.04, "fewer than 50 cells in well": "enough cells in well"}
{"target": "Gm10033 (GeneID 378466)", "Tnf reporter robust z-score": -0.05, "fewer than 50 cells in well": "enough cells in well"}
{"target": "Psme3ip1 (GeneID 102122)", "fewer than 50 cells in well": "fewer than 50 cells per well; well left out of calls"}
